PubChem BioAssay AID1671195 – Yale University | 2021
This is an unselected part of about 22,000 reagents. About 1,510 of them (6.9%) were called active. 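Active includes knockdowns raising or lowering LDL uptake; positive z-scores mean more uptake, negative mean less.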 A number with no mark means an inactive call.

Assay: 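Genes whose knockdown alters LDL uptake in liver cancer cells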 (primary screen)
Cells: human Huh7 hepatoma cells
Knock-down reagent: siRNA pool against human genes, 18 nM
Time to read-out: about 2 to 2.5 days of knockdown, then 8 h LDL uptake
Challenge: DiI-labelled LDL at 30 µg/ml for 8 h, in lipoprotein-deficient serum medium
Measured: 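Per-cell DiI-LDL intensity by automated imaging; well means scaled to the plate median and given as a robust z-score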
Reading the numbers: robust z-score: higher = more LDL uptake after knockdown
Hit rule: 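Active when two or more replicates show a robust z-score above 2 or below -2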

For VANGL1 (GeneID 81839), how do the results read?
robust z-score, replicate 1: 0.0739; robust z-score, replicate 2: -0.187; robust z-score, replicate 3: -0.217

With LOC440507 (retired record) (GeneID 440507), what does the deposit list?
robust z-score, replicate 1: 1.34; robust z-score, replicate 2: 1.35; robust z-score, replicate 3: 1.7

What did the screen give for ELF2 (GeneID 1998)?
robust z-score, replicate 1: 2.89 (active); robust z-score, replicate 2: 2.1; robust z-score, replicate 3: 4.02

What did the screen give for FOXD3 (GeneID 27022)?
robust z-score, replicate 1: -0.869; robust z-score, replicate 2: -0.591; robust z-score, replicate 3: -0.657

With LOC441920 (retired record) (GeneID 441920), what does the deposit list?
robust z-score, replicate 1: -0.913; robust z-score, replicate 2: -0.924; robust z-score, replicate 3: -0.843

With CDHR1 (GeneID 92211), how do the results read?
robust z-score, replicate 1: 1.27; robust z-score, replicate 2: 1.27; robust z-score, replicate 3: 1.1

With COTL1 (GeneID 23406), what does the deposit list?
robust z-score, replicate 1: -0.38; robust z-score, replicate 2: -0.358; robust z-score, replicate 3: -0.175

For KIAA1191 (GeneID 57179), what does the deposit list?
robust z-score, replicate 1: 6.31 (active); robust z-score, replicate 2: 5.02; robust z-score, replicate 3: 7.27

Which result is listed for RAD50 (GeneID 10111)?
robust z-score, replicate 1: -0.795; robust z-score, replicate 2: -1.17; robust z-score, replicate 3: -0.735

What is on record for SUMO4 (GeneID 387082)?
robust z-score, replicate 1: 2.38 (active); robust z-score, replicate 2: 3.22; robust z-score, replicate 3: 2.94

What did the screen give for RPS12P3 (GeneID 344423)?
robust z-score, replicate 1: 0.099; robust z-score, replicate 2: 0.00196; robust z-score, replicate 3: 0.0394

With LOC389353 (retired record) (GeneID 389353), what was measured?
robust z-score, replicate 1: -0.481; robust z-score, replicate 2: -0.501; robust z-score, replicate 3: -0.385

Which result is listed for LRRC47 (GeneID 57470)?
robust z-score, replicate 1: -1.81; robust z-score, replicate 2: -0.937; robust z-score, replicate 3: -1.09

What is on record for TMEM216 (GeneID 51259)?
robust z-score, replicate 1: 0.583; robust z-score, replicate 2: -0.893; robust z-score, replicate 3: 0.0759

With RC3H1 (GeneID 149041), what does the deposit list?
robust z-score, replicate 1: 1.62; robust z-score, replicate 2: 1.34; robust z-score, replicate 3: -0.166

What is on record for SYTL3 (GeneID 94120)?
robust z-score, replicate 1: -0.958; robust z-score, replicate 2: -1.17; robust z-score, replicate 3: -1.25

Hits, among the entries above:
ELF2 (GeneID 1998): robust z-score, replicate 1 = 2.89 (active); robust z-score, replicate 2 = 2.1; robust z-score, replicate 3 = 4.02
KIAA1191 (GeneID 57179): robust z-score, replicate 1 = 6.31 (active); robust z-score, replicate 2 = 5.02; robust z-score, replicate 3 = 7.27
SUMO4 (GeneID 387082): robust z-score, replicate 1 = 2.38 (active); robust z-score, replicate 2 = 3.22; robust z-score, replicate 3 = 2.94
